Experimental data from doi:10.1101/2025.09.18.676997.
These are yes or no findings as the source states them, for the method shown. In cells and extracts the contact can be indirect. Some results given as binding are weak or reduced against the parent protein; the word gives no strength.

Target: Serum Response Factor (SRF) wild type (human) (UniProt P11831)
Experiment: co-IP

B1: Serum Response Factor (SRF) wild type (protein, UniProt P11831 1-508)
chain: MLPTQAGAAAALGRGSALGGSLNRTPTGRPGGGGGTRGANGGRVPGNGAGLGPGRLEREAAAAAATTPAPTAGALYSGSEGDSESGEEEELGAERRGLKRSLSEMEIGMVVGGPEASAAATGGYGPVSGAVSGAKPGKKTRGRVKIKMEFIDNKLRRYTTFSKRKTGIMKKAYELSTLTGTQVLLLVASETGHVYTFATRKLQPMITSETGKALIQTCLNSPDSPPRSDPTTDQRMSATGFEETDLTYQVSESDSSGETKDTLKPAFTVTNLPGTTSTIQTAPSTSTTMQVSSGPSFPITNYLAPVSASVSPSAVSSANGTVLKSTGSGPVSSGGLMQLPTSFTLMPGGAVAQQVPVQAIQVHQAPQQASPSRDSSTDLTQTSSSGTVTLPATIMTSSVPTTVGGHMMYPSPHAVMYAPTSGLGDGSLTVLNAFSQAPSTMQVSHSQVQEPGGVPQVFLTASSGTVQIPVSAVQLHQMAVIGQQAGSSSNLTELQVVNLDTAHSTKSE
  binding: binds
